Results from article PMC8967222.
No constants are given. Whether binding was seen depends on the method and setting. In cells and extracts the contact can be indirect. Some binding calls cover weakened binding; strength is not graded here. One block for each molecule: values may come before it.

Amino acid sequences for entries named in this document (tags omitted).
UniProt P06537: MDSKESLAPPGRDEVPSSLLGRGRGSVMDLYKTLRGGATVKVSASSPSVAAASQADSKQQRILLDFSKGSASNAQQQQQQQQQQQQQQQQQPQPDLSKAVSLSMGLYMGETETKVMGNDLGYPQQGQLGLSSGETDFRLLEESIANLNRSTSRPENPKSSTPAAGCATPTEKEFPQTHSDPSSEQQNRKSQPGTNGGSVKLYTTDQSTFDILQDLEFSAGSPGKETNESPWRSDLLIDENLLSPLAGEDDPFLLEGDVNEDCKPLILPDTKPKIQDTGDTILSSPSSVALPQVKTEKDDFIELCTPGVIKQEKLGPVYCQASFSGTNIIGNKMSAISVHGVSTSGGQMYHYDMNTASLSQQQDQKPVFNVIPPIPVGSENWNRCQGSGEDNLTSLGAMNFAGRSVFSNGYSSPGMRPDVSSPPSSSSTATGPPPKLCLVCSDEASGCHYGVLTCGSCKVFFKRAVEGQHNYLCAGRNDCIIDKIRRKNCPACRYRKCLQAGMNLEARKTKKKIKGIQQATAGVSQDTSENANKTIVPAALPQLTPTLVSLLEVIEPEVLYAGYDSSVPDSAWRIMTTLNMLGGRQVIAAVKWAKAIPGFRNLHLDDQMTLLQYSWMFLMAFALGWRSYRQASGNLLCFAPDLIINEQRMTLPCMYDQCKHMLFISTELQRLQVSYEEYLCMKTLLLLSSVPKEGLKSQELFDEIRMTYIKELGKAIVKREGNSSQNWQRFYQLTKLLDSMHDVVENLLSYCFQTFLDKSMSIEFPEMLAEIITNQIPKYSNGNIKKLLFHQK
UniProt Q9CW03: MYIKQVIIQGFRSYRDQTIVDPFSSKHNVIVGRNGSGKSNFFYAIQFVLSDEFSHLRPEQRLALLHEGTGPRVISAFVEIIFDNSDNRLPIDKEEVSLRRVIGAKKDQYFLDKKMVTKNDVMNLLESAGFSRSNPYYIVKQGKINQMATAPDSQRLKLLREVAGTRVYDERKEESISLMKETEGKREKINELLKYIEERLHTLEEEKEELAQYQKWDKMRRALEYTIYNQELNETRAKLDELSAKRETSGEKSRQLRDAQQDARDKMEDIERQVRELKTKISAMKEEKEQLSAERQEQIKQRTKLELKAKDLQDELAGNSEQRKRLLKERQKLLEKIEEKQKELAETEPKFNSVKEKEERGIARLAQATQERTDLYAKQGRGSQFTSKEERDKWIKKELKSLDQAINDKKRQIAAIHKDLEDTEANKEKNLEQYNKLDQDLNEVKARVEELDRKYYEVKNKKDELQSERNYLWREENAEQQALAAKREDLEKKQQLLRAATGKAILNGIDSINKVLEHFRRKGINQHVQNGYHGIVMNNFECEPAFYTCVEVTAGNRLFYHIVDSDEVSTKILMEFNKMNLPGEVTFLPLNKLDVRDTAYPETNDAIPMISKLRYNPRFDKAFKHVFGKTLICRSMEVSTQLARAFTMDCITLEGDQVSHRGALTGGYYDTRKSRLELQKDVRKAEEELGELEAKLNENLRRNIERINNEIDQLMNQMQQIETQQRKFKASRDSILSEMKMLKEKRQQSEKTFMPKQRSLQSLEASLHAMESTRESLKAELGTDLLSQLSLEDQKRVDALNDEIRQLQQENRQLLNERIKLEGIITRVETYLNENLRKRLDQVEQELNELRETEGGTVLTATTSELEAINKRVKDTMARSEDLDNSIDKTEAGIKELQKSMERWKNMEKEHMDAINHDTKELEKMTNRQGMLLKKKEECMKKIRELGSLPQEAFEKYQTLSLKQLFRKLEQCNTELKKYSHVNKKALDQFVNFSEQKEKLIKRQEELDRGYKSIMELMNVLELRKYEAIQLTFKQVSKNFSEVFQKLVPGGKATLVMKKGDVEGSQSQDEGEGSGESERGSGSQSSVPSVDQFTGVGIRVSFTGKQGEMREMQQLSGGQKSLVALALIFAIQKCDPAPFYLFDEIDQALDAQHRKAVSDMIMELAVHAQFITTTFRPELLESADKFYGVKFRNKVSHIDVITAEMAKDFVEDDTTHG
UniProt Q6KCD5: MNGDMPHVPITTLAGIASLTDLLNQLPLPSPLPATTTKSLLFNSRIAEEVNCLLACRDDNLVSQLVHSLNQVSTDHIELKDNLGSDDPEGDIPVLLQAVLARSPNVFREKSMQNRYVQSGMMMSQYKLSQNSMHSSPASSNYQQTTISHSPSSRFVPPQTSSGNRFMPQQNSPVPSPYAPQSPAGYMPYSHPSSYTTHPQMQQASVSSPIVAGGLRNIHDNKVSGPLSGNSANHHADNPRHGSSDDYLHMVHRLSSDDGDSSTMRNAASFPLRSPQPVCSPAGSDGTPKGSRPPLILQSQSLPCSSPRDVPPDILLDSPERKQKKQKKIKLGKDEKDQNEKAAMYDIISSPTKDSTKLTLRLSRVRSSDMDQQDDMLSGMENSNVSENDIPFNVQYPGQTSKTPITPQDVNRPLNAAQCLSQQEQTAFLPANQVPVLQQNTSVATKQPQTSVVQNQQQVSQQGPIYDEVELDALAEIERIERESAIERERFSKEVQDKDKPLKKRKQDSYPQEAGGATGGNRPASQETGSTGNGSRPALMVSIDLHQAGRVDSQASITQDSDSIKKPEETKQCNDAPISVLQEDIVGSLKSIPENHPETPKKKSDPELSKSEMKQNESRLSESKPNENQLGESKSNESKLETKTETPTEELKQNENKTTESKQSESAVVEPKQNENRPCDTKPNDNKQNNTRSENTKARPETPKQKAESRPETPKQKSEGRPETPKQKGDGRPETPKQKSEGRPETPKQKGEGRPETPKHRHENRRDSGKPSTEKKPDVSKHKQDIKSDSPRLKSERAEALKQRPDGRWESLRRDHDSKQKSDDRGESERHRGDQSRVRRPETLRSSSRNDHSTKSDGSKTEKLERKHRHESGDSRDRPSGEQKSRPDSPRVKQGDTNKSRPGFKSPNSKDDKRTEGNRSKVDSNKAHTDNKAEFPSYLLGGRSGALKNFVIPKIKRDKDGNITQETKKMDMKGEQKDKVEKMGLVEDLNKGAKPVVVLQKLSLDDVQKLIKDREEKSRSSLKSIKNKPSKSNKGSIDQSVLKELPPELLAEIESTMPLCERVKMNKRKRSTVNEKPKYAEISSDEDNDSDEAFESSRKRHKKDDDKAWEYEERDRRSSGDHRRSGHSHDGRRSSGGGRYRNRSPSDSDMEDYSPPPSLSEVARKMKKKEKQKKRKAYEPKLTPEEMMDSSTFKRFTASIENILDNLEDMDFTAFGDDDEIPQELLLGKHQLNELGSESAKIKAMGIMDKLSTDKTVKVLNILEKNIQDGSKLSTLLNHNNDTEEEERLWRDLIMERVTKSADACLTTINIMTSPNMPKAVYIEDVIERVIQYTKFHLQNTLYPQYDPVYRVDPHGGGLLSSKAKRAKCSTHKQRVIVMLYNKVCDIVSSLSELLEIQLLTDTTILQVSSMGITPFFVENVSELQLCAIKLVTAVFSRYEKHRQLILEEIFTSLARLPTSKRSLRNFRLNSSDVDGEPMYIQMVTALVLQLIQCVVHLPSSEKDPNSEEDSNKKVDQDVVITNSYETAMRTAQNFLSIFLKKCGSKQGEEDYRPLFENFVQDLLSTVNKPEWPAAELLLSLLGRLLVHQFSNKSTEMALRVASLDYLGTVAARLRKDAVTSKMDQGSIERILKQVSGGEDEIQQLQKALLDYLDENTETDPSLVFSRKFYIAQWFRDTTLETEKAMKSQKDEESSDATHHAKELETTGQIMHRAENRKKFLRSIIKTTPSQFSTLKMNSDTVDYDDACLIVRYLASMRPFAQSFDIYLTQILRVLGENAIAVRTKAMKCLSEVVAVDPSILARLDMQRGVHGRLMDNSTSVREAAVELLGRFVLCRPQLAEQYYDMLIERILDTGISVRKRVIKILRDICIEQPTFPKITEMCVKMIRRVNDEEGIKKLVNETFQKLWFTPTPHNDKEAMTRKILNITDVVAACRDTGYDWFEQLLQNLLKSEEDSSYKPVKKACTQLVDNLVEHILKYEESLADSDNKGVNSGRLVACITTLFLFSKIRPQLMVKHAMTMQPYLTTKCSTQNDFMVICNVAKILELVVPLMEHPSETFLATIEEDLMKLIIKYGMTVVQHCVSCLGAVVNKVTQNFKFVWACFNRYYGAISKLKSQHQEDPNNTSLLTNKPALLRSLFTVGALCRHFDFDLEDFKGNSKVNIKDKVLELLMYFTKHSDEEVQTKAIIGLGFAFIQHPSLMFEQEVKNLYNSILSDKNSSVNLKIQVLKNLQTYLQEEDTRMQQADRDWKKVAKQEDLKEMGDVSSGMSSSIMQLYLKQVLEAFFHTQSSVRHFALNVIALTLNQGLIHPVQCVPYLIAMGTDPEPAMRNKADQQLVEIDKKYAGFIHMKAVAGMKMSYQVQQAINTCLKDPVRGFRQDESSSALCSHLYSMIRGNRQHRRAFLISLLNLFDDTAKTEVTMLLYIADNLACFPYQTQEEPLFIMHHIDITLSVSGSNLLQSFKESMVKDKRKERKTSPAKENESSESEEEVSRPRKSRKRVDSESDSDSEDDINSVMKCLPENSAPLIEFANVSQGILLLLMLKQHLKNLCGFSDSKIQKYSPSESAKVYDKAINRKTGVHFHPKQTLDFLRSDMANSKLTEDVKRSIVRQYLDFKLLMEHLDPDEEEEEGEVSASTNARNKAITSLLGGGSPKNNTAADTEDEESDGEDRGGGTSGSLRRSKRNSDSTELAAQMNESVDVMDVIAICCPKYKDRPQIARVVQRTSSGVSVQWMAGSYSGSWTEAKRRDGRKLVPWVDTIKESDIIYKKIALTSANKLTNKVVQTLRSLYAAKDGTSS

Columns and labels:
[1] = molecular target: glucocorticoid (GC) receptor (GR) (mouse (endogenous in 3134 mammary carcinoma cells)) (UniProt P06537); assay: co-IP; GR immunoprecipitation from cells treated with EtOH or dexamethasone (100 nM), fixed 12 min with 1% paraformaldehyde, lysed and sonicated (average DNA 500 bp); GR antibody beads overnight at 4°C; low-salt, high-salt, LiCl and TE washes; Western blot
[2] = molecular target: glucocorticoid (GC) receptor (GR) (mouse (endogenous in 3134 mammary carcinoma cells)) (UniProt P06537); assay: proximity ligation; endogenous proteins in fixed (4% paraformaldehyde), permeabilised mammary cancer cells; Duolink kit DUO92101

binding [1]: binds
binding [2]: binds
Molecule: SMC3 (from UniProt Q9CW03 1-1217)

binding [1]: binds
binding [2]: binds
Molecule: cohesin loader NIPBL (from UniProt Q6KCD5 1-2798)

binding [1]: binds
B1: SMC1a (structural maintenance of chromosomes 1a) (protein, UniProt Q9CU62 1-1233)
chain: MGFLKLIEIENFKSYKGRQIIGPFQRFTAIIGPNGSGKSNLMDAISFVLGEKTSNLRVKTLRDLIHGAPVGKPAANRAFVSMVYSEEGAEDRTFARVIVGGSSEYKINNKVVQLHEYSEELEKLGILIKARNFLVFQGAVESIAMKNPKERTALFEEISRSGELAQEYDKRKKEMVKAEEDTQFNYHRKKNIAAERKEAKQEKEEADRYQRLKDEVVRAQVQLQLFKLYHNEVEIEKLNKELASKNKEIEKDKKRMDKVEDELKEKKKELGKMMREQQQIEKEIKEKDSELNQKRPQYIKAKENTSHKIKKLEAAKKSLQNAQKHYKKRKGDMDELEKEMLSVEKARQEFEERMEEESQSQGRDLTLEENQVKKYHRLKEEASKRAATLAQELEKFNRDQKADQDRLDLEERKKVETEAKIKQKLREIEENQKRIEKLEEYITTSKQSLEEQKKLEGELTEEVEMAKRRIDEINKELNQVMEQLGDARIDRQESSRQQRKAEIMESIKRLYPGSVYGRLIDLCQPTQKKYQIAVTKVLGKNMDAIIVDSEKTGRDCIQYIKEQRGEPETFLPLDYLEVKPTDEKLRELKGAKLVIDVIRYEPPHIKKALQYACGNALVCDNVEDARRIAFGGHQRHKTVALDGTLFQKSGVISGGASDLKAKARRWDEKAVDKLKEKKERLTEELKEQMKAKRKEAELRQVQSQAHGLQMRLKYSQSDLEQTKTRHLALNLQEKSKLESELANFGPRINDIKRIIQSREREMKDLKEKMNQVEDEVFEEFCREIGVRNIREFEEEKVKRQNEIAKKRLEFENQKTRLGIQLDFEKNQLKEDQDKVHMWEQTVKKDENEIEKLKKEEQRHMKIIDETMAQLQDLKNQHLAKKSEVNDKNHEMEEIRKKLGGANKEMTHLQKEVTAIETKLEQKRSDRHNLLQACKMQDIKLPLSKGTMDDISQEEGSSQGEESVSGSQRTSSIYAREALIEIDYGDLCEDLKDAQAEEEIKQEMNTLQQKLNEQQSVLQRIAAPNMKAMEKLESVRDKFQETSDEFEAARKRAKKAKQAFEQIKKERFDRFNACFESVATNIDEIYKALSRNSSAQAFLGPENPEEPYLDGINYNCVAPGKRFRPMDNLSGGEKTVAALALLFAIHSYKPAPFFVLDEIDAALDNTNIGKVANYIKEQSTCNFQAIVISLKEEFYTKAESLIGVYPEQGDCVISKVLTFDLTKYPDANPNPNEQ
